PubChem BioAssay AID1259405, NCATS, 2018
Here is one part, drawn at random, of about 50,000 deposited reagents. Of all reagents, about 4,000 (8%) were called active. 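Mouse siRNA library applied to hamster cells; one well for each siRNA.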 The numbers tell different reagents against one gene apart. Reagent sequences are not shown.

Aim: 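Mouse-designed siRNAs used to find CHO productivity engineering targets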 (primary screen)
Cell system: Chinese hamster CHO-K1 ovary cells with stable secreted eGFP expression
Knock-down reagent: single siRNA against mouse genes, 0.8 pmol siRNA per well (2 µl of 400 nM stock)
Duration: 3 days
Detection: 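Per-well intracellular GFP measured by laser scanning cytometry, plus viability from ATP luminescence, each relative to plate median of non-targeting control wells, in %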
Scale: GFP, % of control: higher = more GFP per well, higher productivity; viability (ATP), % of control: higher = more viable cells (more ATP)
Rule for the call: 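Called active when intracellular GFP, relative to negative control, is at or above 120%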

Target gene	reagent no.	GFP, % of control	viability (ATP), % of control	outcome
Pus7l (GeneID 78895)	1	57.7	49.9	inactive
Pus7l (GeneID 78895)	2	73.3	82.3	inactive
Pus7l (GeneID 78895)	3	66.7	71.1	inactive
Glb1 (GeneID 12091)	1	91.4	74.7	inactive
Glb1 (GeneID 12091)	2	77.7	76.3	inactive
Glb1 (GeneID 12091)	3	93.4	113	inactive
Mlph (GeneID 171531)	1	52.7	58.1	inactive
Mlph (GeneID 171531)	2	87.1	71.1	inactive
Mlph (GeneID 171531)	3	80.8	68.6	inactive
Lrrfip1 (GeneID 16978)	1	58.2	104	inactive
Lrrfip1 (GeneID 16978)	2	88.3	79.6	inactive
Lrrfip1 (GeneID 16978)	3	84.1	91.2	inactive

4 entries already listed, arranged by “viability (ATP), % of control”, lowest first:
Target gene	reagent no.	GFP, % of control	viability (ATP), % of control	outcome
Mlph (GeneID 171531)	1	52.7	58.1	inactive
Mlph (GeneID 171531)	3	80.8	68.6	inactive
Mlph (GeneID 171531)	2	87.1	71.1	inactive
Lrrfip1 (GeneID 16978)	1	58.2	104	inactive

The listing continues:
Target gene	reagent no.	GFP, % of control	viability (ATP), % of control	outcome
Pepd (GeneID 18624)	1	62.1	99.1	inactive
Pepd (GeneID 18624)	2	103	65.4	inactive
Pepd (GeneID 18624)	3	118	72.9	inactive
Rab44 (GeneID 442827)	1	102	88.3	inactive
Rab44 (GeneID 442827)	2	82.3	67.2	inactive
Rab44 (GeneID 442827)	3	37.6	57.9	inactive
Spag1 (GeneID 26942)	1	127	120	active
Spag1 (GeneID 26942)	2	103	83.7	inactive
Or8k27 (GeneID 258403)	1	93	99.7	inactive
Or8k27 (GeneID 258403)	2	41.9	54.6	inactive
Or8k27 (GeneID 258403)	3	98.8	87.4	inactive
Mrpl20 (GeneID 66448)	1	41.7	56.3	inactive
Mrpl20 (GeneID 66448)	2	95.9	50.7	inactive
Mrpl20 (GeneID 66448)	3	88.6	75.9	inactive
Plppr1 (GeneID 272031)	1	97.7	69	inactive
Plppr1 (GeneID 272031)	2	55.9	46	inactive
Plppr1 (GeneID 272031)	3	72.1	87.9	inactive
Klrc2 (GeneID 16642)	1	94	83.8	inactive
Klrc2 (GeneID 16642)	2	92.5	122	inactive
Or5h22 (GeneID 258392)	1	63.9	46.1	inactive
Or5h22 (GeneID 258392)	2	96.2	81.6	inactive
Or5h22 (GeneID 258392)	3	65.3	92.4	inactive
